These are yes or no findings as the source states them, for the method shown. Binding seen in cells or lysates may run through a third protein. These calls come from enrichment with a bait or labelling near it, and not all partners need be listed.
Target: c-Myc (human (endogenous in PANC-1 and AsPC-1)) (UniProt P01106)
Experiment: affinity purification with mass spectrometry; proteomic analysis of c-Myc antibody co-IP samples from control and HDAC5-knockdown PANC-1 cells

The chains behind the UniProt entries cited, without tags or fusion partners.
UniProt P01106: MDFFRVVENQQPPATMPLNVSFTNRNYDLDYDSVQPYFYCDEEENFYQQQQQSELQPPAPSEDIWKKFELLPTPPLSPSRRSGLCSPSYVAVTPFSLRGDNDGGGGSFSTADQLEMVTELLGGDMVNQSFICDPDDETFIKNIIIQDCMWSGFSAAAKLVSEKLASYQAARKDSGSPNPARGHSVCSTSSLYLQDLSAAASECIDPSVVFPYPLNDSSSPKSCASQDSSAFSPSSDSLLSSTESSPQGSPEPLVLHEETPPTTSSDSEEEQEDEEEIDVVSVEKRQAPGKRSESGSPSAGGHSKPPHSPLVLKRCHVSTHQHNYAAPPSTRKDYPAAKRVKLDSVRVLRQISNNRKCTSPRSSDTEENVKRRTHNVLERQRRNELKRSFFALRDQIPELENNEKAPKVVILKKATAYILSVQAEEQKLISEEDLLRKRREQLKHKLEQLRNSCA
UniProt P46934: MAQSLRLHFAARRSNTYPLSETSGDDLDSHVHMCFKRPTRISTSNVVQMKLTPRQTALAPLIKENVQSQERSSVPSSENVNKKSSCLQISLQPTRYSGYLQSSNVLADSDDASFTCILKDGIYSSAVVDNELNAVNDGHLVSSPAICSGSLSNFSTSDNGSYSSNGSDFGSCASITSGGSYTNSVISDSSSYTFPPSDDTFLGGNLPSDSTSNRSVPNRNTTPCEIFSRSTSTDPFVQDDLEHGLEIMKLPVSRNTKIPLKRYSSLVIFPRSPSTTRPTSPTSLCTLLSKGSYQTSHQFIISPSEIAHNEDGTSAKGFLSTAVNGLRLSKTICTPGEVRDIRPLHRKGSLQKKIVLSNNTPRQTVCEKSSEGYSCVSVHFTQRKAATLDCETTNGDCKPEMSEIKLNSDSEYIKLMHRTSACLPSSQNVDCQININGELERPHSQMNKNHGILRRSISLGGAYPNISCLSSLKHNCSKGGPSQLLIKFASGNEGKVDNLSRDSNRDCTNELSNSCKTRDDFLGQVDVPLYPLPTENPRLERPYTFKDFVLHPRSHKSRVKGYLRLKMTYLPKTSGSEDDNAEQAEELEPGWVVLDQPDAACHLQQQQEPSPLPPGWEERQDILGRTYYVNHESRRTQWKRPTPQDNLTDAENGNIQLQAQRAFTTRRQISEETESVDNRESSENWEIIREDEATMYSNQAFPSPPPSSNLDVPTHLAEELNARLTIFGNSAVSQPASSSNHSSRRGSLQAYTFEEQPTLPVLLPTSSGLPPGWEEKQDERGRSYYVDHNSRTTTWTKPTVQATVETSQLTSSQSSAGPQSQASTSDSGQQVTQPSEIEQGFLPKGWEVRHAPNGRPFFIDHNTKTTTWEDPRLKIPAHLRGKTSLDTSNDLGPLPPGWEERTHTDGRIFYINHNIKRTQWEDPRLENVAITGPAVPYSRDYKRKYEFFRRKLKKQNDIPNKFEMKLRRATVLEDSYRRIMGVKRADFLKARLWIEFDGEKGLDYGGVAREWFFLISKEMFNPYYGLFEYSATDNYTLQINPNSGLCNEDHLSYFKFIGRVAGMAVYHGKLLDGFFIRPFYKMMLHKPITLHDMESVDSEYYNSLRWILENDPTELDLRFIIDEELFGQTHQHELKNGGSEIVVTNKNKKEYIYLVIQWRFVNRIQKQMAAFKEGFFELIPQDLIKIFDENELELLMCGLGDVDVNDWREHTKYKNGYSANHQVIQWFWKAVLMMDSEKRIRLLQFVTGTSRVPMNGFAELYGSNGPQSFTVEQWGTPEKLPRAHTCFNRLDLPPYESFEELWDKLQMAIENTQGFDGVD
UniProt Q9UNE7: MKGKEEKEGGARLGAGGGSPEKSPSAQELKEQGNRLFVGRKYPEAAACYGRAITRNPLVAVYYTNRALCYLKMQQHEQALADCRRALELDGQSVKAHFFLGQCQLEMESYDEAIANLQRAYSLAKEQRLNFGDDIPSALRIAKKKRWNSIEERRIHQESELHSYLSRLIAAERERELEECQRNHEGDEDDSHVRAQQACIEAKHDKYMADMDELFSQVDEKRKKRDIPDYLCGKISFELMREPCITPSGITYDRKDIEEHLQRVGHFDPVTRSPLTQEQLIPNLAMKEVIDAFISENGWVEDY
UniProt Q9UPN9: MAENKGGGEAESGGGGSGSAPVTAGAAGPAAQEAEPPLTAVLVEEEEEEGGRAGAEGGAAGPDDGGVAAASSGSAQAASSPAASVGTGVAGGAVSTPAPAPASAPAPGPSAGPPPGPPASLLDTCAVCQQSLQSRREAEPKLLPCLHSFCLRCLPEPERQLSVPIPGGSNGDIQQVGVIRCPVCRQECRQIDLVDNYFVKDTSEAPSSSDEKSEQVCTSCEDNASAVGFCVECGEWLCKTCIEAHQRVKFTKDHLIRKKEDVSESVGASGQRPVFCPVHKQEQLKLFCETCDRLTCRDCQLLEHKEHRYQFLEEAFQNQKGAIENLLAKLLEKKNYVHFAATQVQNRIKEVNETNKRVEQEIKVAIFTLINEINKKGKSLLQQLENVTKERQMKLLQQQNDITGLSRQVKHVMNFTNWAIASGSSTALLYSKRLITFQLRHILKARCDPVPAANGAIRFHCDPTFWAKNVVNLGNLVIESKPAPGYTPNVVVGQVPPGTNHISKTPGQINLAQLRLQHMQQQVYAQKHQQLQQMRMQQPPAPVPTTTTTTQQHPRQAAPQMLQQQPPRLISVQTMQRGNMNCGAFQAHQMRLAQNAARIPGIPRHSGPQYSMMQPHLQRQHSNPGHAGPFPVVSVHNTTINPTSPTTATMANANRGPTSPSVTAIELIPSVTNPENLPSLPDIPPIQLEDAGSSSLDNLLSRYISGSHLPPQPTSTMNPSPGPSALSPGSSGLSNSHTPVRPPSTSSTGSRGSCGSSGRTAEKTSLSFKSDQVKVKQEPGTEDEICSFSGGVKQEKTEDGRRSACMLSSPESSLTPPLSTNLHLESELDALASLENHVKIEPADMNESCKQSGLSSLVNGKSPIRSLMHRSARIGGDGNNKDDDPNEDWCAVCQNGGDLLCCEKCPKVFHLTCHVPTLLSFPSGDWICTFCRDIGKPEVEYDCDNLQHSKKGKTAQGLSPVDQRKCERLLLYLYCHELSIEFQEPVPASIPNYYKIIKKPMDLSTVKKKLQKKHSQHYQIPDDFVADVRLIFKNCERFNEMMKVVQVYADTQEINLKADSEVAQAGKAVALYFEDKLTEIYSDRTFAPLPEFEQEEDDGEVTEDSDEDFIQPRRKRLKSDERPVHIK

Row | binding | Substance
1 | binds | NEDD4 (from UniProt P46934 1-1319) (enzyme)
2 | binds | STIP1 homology and U-Box containing protein 1 (STUB1) (from UniProt Q9UNE7 1-303) (enzyme)
3 | binds | Tripartite motif containing 33 (TRIM33) (from UniProt Q9UPN9 1-1127) (enzyme)
